Data as given in PubChem BioAssay AID1224828 (NIAID, 2016).
Assay: 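Knock-downs that increase or decrease LPS-induced p65 nuclear translocation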 (primary screen). Cell system: mouse RAW264.7 G9 macrophage reporter cells (GFP-p65, Tnf promoter-mCherry). Reagents: siRNA pool against mouse genes, 100 nM. Time to read-out: 2 days siRNA transfection, then 40 min LPS before fixation. Challenge: LPS (Salmonella minnesota R595) at 10 ng/ml. Measurement: 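Microscopy ratio of nuclear to perinuclear-ring GFP-p65 signal, scaled to the plate median; gene score is the average of two replicate robust z-scores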. Reading the numbers: p65 translocation robust z-score: higher = more nuclear NF-kappaB p65 after LPS than the plate median; nuclear/cytoplasmic p65 ratio: higher = more nuclear NF-kappaB p65. Call rule: 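Called active when z exceeds 3.3 or falls under -1.56 (median of Tlr4 controls), giving activity score of at least 50; no calls for control wells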. Calls: active = hit (p65 shift raised or lowered); inactive = no clear change.
This is a random part of about 17,000 deposited reagents. Of all reagents, 762 (4.5%) are marked active. 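Active calls include both raised and lowered p65 entry, mostly lowered; wells with fewer than 50 cells lack a z-score.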 Raw values vary from plate to plate and are shown uncorrected. A reagent listed more than once was tested more than once; the source does not tell the runs apart.

Tmem40 → nuclear/cytoplasmic p65 ratio, rep 1 = 1.32; nuclear/cytoplasmic p65 ratio, rep 2 = 1.43; low cell count flag = fewer than 50 cells per well; well left out of scoring; outcome = inactive
Ccdc126 → nuclear/cytoplasmic p65 ratio, rep 1 = 1.43; nuclear/cytoplasmic p65 ratio, rep 2 = 1.09; low cell count flag = fewer than 50 cells per well; well left out of scoring; outcome = inactive
Fetub → p65 translocation robust z-score = -0.23; nuclear/cytoplasmic p65 ratio, rep 1 = 1.56; nuclear/cytoplasmic p65 ratio, rep 2 = 1.43; low cell count flag = enough cells to score; outcome = inactive
9130230L23Rik → p65 translocation robust z-score = -0.02; nuclear/cytoplasmic p65 ratio, rep 1 = 1.45; nuclear/cytoplasmic p65 ratio, rep 2 = 1.52; low cell count flag = enough cells to score; outcome = inactive
Pcyt2 → p65 translocation robust z-score = 0.47; nuclear/cytoplasmic p65 ratio, rep 1 = 1.5; nuclear/cytoplasmic p65 ratio, rep 2 = 1.24; low cell count flag = enough cells to score; outcome = inactive
Ngfr → p65 translocation robust z-score = 0.28; nuclear/cytoplasmic p65 ratio, rep 1 = 1.47; nuclear/cytoplasmic p65 ratio, rep 2 = 1.46; low cell count flag = enough cells to score; outcome = inactive
Lama3 → p65 translocation robust z-score = 0.6; nuclear/cytoplasmic p65 ratio, rep 1 = 1.57; nuclear/cytoplasmic p65 ratio, rep 2 = 1.44; low cell count flag = enough cells to score; outcome = inactive
Ankrd54 → p65 translocation robust z-score = 0.45; nuclear/cytoplasmic p65 ratio, rep 1 = 1.61; nuclear/cytoplasmic p65 ratio, rep 2 = 1.91; low cell count flag = enough cells to score; outcome = inactive
Traip → p65 translocation robust z-score = 0.76; nuclear/cytoplasmic p65 ratio, rep 1 = 1.54; nuclear/cytoplasmic p65 ratio, rep 2 = 1.68; low cell count flag = enough cells to score; outcome = inactive
Ddit4 → nuclear/cytoplasmic p65 ratio, rep 1 = 1.36; nuclear/cytoplasmic p65 ratio, rep 2 = 1.56; low cell count flag = fewer than 50 cells per well; well left out of scoring; outcome = inactive
Or52n4 → p65 translocation robust z-score = 0.16; nuclear/cytoplasmic p65 ratio, rep 1 = 1.54; nuclear/cytoplasmic p65 ratio, rep 2 = 1.22; low cell count flag = enough cells to score; outcome = inactive
Pfkfb4 → p65 translocation robust z-score = 1.85; nuclear/cytoplasmic p65 ratio, rep 1 = 1.9; nuclear/cytoplasmic p65 ratio, rep 2 = 1.69; low cell count flag = enough cells to score; outcome = inactive
Phkb → p65 translocation robust z-score = 0.92; nuclear/cytoplasmic p65 ratio, rep 1 = 1.61; nuclear/cytoplasmic p65 ratio, rep 2 = 1.54; low cell count flag = enough cells to score; outcome = inactive
Clec12a → p65 translocation robust z-score = -1.15; nuclear/cytoplasmic p65 ratio, rep 1 = 1.38; nuclear/cytoplasmic p65 ratio, rep 2 = 1.87; low cell count flag = enough cells to score; outcome = inactive
Snapc1 → p65 translocation robust z-score = -0.02; nuclear/cytoplasmic p65 ratio, rep 1 = 1.58; nuclear/cytoplasmic p65 ratio, rep 2 = 1.52; low cell count flag = enough cells to score; outcome = inactive
Gps2 → nuclear/cytoplasmic p65 ratio, rep 1 = 1.27; nuclear/cytoplasmic p65 ratio, rep 2 = 1.27; low cell count flag = fewer than 50 cells per well; well left out of scoring; outcome = inactive
Avpr1b → p65 translocation robust z-score = -0.31; nuclear/cytoplasmic p65 ratio, rep 1 = 1.75; nuclear/cytoplasmic p65 ratio, rep 2 = 1.25; low cell count flag = enough cells to score; outcome = inactive
Avpr1b → p65 translocation robust z-score = 0.27; nuclear/cytoplasmic p65 ratio, rep 1 = 1.57; nuclear/cytoplasmic p65 ratio, rep 2 = 1.59; low cell count flag = enough cells to score; outcome = inactive
Irak4 → p65 translocation robust z-score = 0.5; nuclear/cytoplasmic p65 ratio, rep 1 = 1.61; nuclear/cytoplasmic p65 ratio, rep 2 = 1.39; low cell count flag = enough cells to score; outcome = inactive
Scml2 → p65 translocation robust z-score = 0.38; nuclear/cytoplasmic p65 ratio, rep 1 = 1.46; nuclear/cytoplasmic p65 ratio, rep 2 = 1.27; low cell count flag = enough cells to score; outcome = inactive
Imp3 → nuclear/cytoplasmic p65 ratio, rep 1 = 1.37; nuclear/cytoplasmic p65 ratio, rep 2 = 1.93; low cell count flag = fewer than 50 cells per well; well left out of scoring; outcome = inactive

2 entries from above, sorted by “p65 translocation robust z-score”, descending.
Phkb → p65 translocation robust z-score = 0.92; nuclear/cytoplasmic p65 ratio, rep 1 = 1.61; nuclear/cytoplasmic p65 ratio, rep 2 = 1.54; low cell count flag = enough cells to score; outcome = inactive
Clec12a → p65 translocation robust z-score = -1.15; nuclear/cytoplasmic p65 ratio, rep 1 = 1.38; nuclear/cytoplasmic p65 ratio, rep 2 = 1.87; low cell count flag = enough cells to score; outcome = inactive
